Where two headings read alike, the source gives them in different places. Results are given in words; binding and its absence hold for the method and conditions named. Binding seen in cells or lysates may run through a third protein. Some entries that bind do so weakly or less than the wild type. Sequences can lack the tags named with a protein.
T1: myc-F-box only protein 31 (FBXO31) (UniProt Q5XUX0)
T1 sequence: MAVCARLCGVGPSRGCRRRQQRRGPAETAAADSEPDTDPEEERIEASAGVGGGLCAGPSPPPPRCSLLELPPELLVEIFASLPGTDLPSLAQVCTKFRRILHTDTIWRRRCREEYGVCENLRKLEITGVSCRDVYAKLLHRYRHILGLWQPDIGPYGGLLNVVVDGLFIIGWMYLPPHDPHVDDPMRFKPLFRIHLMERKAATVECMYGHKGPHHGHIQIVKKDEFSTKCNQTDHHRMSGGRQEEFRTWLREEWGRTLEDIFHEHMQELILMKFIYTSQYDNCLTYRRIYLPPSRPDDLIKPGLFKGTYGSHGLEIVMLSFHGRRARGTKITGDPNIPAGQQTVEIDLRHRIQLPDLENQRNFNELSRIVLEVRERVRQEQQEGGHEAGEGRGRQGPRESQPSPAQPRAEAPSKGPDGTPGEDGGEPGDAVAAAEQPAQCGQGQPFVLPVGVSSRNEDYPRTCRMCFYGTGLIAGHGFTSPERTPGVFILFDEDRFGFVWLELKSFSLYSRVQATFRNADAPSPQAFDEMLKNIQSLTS

Chains of the proteins cited; added tags and fusions are not shown.
UniProt P35222: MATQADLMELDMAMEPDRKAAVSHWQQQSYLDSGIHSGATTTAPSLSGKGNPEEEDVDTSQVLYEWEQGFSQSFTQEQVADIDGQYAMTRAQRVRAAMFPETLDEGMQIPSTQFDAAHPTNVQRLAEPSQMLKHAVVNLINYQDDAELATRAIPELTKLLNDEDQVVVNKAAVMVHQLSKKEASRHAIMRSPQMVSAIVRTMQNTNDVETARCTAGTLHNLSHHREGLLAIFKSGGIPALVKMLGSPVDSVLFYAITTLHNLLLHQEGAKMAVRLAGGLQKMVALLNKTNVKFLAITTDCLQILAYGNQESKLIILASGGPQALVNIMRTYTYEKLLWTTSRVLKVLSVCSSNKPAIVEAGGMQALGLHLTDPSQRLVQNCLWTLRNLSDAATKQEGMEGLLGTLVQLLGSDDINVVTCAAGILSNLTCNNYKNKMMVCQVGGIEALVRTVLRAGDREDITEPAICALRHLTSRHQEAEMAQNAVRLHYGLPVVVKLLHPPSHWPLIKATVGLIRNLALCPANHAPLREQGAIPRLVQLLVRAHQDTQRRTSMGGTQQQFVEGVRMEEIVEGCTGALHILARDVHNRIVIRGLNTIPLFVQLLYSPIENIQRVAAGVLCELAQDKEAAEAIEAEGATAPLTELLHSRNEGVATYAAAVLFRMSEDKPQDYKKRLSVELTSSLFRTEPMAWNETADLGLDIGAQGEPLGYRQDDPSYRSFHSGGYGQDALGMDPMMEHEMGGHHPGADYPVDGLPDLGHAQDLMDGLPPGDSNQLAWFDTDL
UniProt P63208: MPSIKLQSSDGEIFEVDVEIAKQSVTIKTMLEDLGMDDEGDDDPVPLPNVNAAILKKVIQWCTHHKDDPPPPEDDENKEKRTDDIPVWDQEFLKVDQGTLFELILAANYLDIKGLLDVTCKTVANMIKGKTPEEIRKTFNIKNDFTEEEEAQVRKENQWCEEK


Experiments:
[1] = molecular target: T1, myc-F-box only protein 31 (FBXO31); test: co-IP; hBMSCs cotransfected with FLAG-β-catenin and myc-FBXO31 or myc-FBXO31ΔF for 48 h, 10 μM MG132 for 6 h; nondenaturing lysis buffer (20 mM Tris-HCl pH 8.0, 137 mM NaCl, 0.5% Nonidet P40, 2 mM EDTA); IP with anti-myc antibodies overnight at 4 °C, protein A/G agarose beads, immunoblot
[2] = molecular target: T1, myc-F-box only protein 31 (FBXO31); test: as above; remark: listed apart in the source

| binding [1] | binding [2] | Molecule |
| --- | --- | --- |
| binds | – | FLAG-β-catenin (from UniProt P35222 1-781) |
| binds | – | Skp1, endogenous in hBMSCs (from UniProt P63208 1-163) |
| – | binds | ubiquitin-specific protease 53 (USP53), in hBMSCs of the anti-myc co-IP (protein, UniProt Q70EK8 1-1073) MAWVKFLRKPGGNLGKVYQPGSMLSLAPTKGLLNEPGQNSCFLNSAVQVLWQLDIFRRSLRVLTGHVCQGDACIFCALKTIFAQFQHSREKALPSDNIRHALAESFKDEQRFQLGLMDDAAECFENMLERIHFHIVPSRDADMCTSKSCITHQKFAMTLYEQCVCRSCGASSDPLPFTEFVRYISTTALCNEVERMLERHERFKPEMFAELLQAANTTDDYRKCPSNCGQKIKIRRVLMNCPEIVTIGLVWDSEHSDLTEAVVRNLATHLYLPGLFYRVTDENAKNSELNLVGMICYTSQHYCAFAFHTKSSKWVFFDDANVKEIGTRWKDVVSKCIRCHFQPLLLFYANPDGTAVSTEDALRQVISWSHYKSVAENMGCEKPVIHKSDNLKENGFGDQAKQRENQKFPTDNISSSNRSHSHTGVGKGPAKLSHIDQREKIKDISRECALKAIEQKNLLSSQRKDLEKGQRKDLGRHRDLVDEDLSHFQSGSPPAPNGFKQHGNPHLYHSQGKGSYKHDRVVPQSRASAQIISSSKSQILAPGEKITGKVKSDNGTGYDTDSSQDSRDRGNSCDSSSKSRNRGWKPMRETLNVDSIFSESEKRQHSPRHKPNISNKPKSSKDPSFSNWPKENPKQKGLMTIYEDEMKQEIGSRSSLESNGKGAEKNKGLVEGKVHGDNWQMQRTESGYESSDHISNGSTNLDSPVIDGNGTVMDISGVKETVCFSDQITTSNLNKERGDCTSLQSQHHLEGFRKELRNLEAGYKSHEFHPESHLQIKNHLIKRSHVHEDNGKLFPSSSLQIPKDHNAREHIHQSDEQKLEKPNECKFSEWLNIENSERTGLPFHVDNSASGKRVNSNEPSSLWSSHLRTVGLKPETAPLIQQQNIMDQCYFENSLSTECIIRSASRSDGCQMPKLFCQNLPPPLPPKKYAITSVPQSEKSESTPDVKLTEVFKATSHLPKHSLSTASEPSLEVSTHMNDERHKETFQVRECFGNTPNCPSSSSTNDFQANSGAIDAFCQPELDSISTCPNETVSLTTYFSVDSCMTDTYRLKYHQRPKLSFPESSGFCNNSLS |
